From PMC5811045 come the findings set out here.

Amino acid sequences for entries named in this document (tags omitted).
UniProt P15806: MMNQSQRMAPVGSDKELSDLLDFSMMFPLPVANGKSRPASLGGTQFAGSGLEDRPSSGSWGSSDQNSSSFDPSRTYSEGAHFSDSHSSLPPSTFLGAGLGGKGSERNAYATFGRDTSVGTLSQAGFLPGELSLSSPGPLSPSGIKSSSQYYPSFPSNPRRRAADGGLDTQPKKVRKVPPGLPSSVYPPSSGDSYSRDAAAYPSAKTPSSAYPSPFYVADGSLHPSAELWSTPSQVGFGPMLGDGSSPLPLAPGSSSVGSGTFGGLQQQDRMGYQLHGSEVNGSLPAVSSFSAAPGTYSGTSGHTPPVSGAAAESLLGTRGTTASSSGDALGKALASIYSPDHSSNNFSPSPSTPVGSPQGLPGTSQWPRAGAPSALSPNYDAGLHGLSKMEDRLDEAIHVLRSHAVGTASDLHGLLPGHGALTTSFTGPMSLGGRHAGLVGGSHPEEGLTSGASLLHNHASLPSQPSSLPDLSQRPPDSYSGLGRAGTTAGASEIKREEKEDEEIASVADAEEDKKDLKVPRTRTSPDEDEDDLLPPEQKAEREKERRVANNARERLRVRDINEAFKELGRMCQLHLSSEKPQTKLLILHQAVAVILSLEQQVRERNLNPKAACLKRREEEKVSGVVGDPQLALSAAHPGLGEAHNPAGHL

Assay [1] addresses E12 (UniProt P15806). Nature of the assay: native gel or EMSA; programmed wheat germ extracts mixed as indicated, 15 min at room temperature in 100 mM Hepes pH 7.6, 25 mM KCl, 1.5 mM MgCl2, 0.2 mM EDTA, 2.5% glycerol, 100 ng poly dIdC; then 15 min with 32P-labelled mouse Hes5(e1) E-box probe; 4.5% polyacrylamide gel, autoradiography; protein complexes are seen only as bound to the DNA probe. A general note: In EMSA bound probe runs differently from free probe, usually more slowly.

Assay [2] deals with E12 (UniProt P15806). The description is as above. The source holds these as a separate data set.

Read-outs that look alike come from different tables or passages of the source. Results are given in words; binding and its absence hold for the method and conditions named. Some binding calls cover weakened binding; strength is not graded here.

Consider E12 (from UniProt P15806 1-651), for which the binding entry in assay [1] was “binds”.

B1: Id1 (protein, UniProt P20067 1-168)
chain: MKVASGSAAAAAGPSCSLKAGRTAGEVVLGLSEQSVAISRCAGTRLPALLDEQQVNVLLYDMNGCYSRLKELVPTLPQNRKVSKVEILQHVIDYIRDLQLELNSESEVGTTGGRGLPVRAPLSTLNGEISALAAEVRSESEYYIILQWETEATGGGCPPSLLFRRIAI
For the molecule B1, in assay [2], the binding entry was “binds”.
